Experimental data as given in patent CN113307874A.
Numbering of substitutions follows the chain as printed. No constants are given. Whether binding was seen depends on the method and setting. Some binding calls cover weakened binding; strength is not graded here.

T1: 人LAG3抗原 (ACRO, Cat.LA3-H5222) (human) (UniProt P18627)
T1 sequence (looked up): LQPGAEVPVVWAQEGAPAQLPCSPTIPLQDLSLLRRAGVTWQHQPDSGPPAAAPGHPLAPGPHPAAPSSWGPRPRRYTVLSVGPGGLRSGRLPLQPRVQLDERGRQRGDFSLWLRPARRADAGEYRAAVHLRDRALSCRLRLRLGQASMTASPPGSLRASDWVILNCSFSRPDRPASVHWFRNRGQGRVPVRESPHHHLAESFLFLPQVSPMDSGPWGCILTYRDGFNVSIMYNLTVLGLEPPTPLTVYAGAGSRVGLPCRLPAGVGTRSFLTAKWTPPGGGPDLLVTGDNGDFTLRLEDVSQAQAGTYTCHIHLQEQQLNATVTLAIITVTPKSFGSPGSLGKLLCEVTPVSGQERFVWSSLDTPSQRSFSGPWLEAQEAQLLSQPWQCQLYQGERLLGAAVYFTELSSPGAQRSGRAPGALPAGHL

T2: 过表达人LAG3抗原的Jurkat/LAG3细胞表面的人LAG3 (human) (UniProt P18627)
T2 sequence (looked up): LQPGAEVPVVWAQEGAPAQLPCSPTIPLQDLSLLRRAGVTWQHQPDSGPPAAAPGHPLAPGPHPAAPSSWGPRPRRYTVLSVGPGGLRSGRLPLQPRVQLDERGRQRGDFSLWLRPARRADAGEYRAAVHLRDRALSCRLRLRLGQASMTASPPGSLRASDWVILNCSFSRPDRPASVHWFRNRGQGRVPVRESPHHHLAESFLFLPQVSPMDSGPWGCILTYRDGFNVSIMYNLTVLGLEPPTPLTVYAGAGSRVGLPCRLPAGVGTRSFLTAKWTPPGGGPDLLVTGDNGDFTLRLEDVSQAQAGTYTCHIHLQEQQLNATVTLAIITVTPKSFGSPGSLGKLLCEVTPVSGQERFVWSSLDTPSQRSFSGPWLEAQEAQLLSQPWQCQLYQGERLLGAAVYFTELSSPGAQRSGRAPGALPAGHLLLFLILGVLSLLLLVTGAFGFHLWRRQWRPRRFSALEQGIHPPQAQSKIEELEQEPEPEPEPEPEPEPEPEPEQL

B1: 人源化抗体 hmL4F6 (antibody, V domains shown)
VH: EVQLVQSGAEVKKPGSSVKLSCKALGYRFTDFEVHWVKLTPGQGLEWIGAIHPGSGGTAYNQKFQGRVTLTADKSSSTAYMELSRLRSEDTAVYYCTTYGWNDWGQGTLVTVS
VL: DIQMTQSPSSLSASVGDRVTITCKASQDVGTAVAWYQQKPGKVPKLLISWASTRHTGVPSRFSGSGSGTDFTLTISSLQPEDVADYLCQQYNNFPYTFGGGTKVEIK
B2: 鼠源抗LAG3抗体 mL3B2 (antibody, V domains shown)
VH: EVQLQQSGAELVRPGASVKLSCKALGYRFTDFEVHWVKLTPVHGLEWIGAIHPGSGAIAYNQKVKGKATLTADKSSSTAYMELSVLTSEDSAVYYCTSYGWNDWGQGTTLTVSS
VL: DIEITQSPSSMYASLGERVTITCKASQDINSYLSWFQQKPGKSPKTLIYRANRLVDGVPSRFSGSGSGQDYSLTISSLEYEDMGIYYCLQYDEFPYTFGGGTKLELKR
B3: 鼠源抗LAG3抗体 mL4F6 (antibody, V domains shown)
VH: B2 VH with A57G, I58T, V64F, V85R, S98T, T109I
VL: DIFMKQSHKFMSTSVGDRVSITCKASQDVGTAVAWYQQKPGQSPKLLISWASTRHTGVPDRFTGSGSGTDFTLTITNVQSEDLADYLCQQYNNFPYTFGGGTKLEIKR

Target: T1, 人LAG3抗原 (ACRO, Cat.LA3-H5222) (human)
Experiment: indirect ELISA, coated human LAG3

Row | Binder | binding
1 | B1 | binds
2 | B2 | binds
3 | B3 | binds

Target: T2, 过表达人LAG3抗原的Jurkat/LAG3细胞表面的人LAG3 (human)
Experiment: indirect flow cytometry on Jurkat/LAG3 cells

Row | Binder | binding
4 | B1 | binds
5 | B2 | binds
6 | B3 | binds
